Laboratory results as given in US6362166B1, “Antipicornaviral compounds and methods for their use and preparation” (Agouron Pharmaceuticals, Inc., priority 1996, dated 2002).

Tested on: HRV-14
Experiment: Antirhinoviral HI-HeLa Cell Culture Assay (Cell Protection Assay, XTT dye reduction)
Type: cell-based, human rhinovirus (HRV) serotype-14
Details: therapeutic index = CC50 divided by EC50; HRV-14, HI-HeLa
Protocol: In the Cell Protection Assay, the ability of compounds to protect cells against HRV infection was measured by the XTT dye reduction method. This method is described in Weislow, O. S., R. Kiser, D. L. Fine, J. Bader, R. H. Shoemaker, and M. R. Boyd, J. Natl. Cancer Inst. 1989, 81, 577-586, which is incorporated herein by reference.
HI-HeLa cells were infected with HRV-14 at a multiplicity of infection (m.o.i.) of 0.13 (virus particles/cell) or mock-infected with medium only. Infected or mock-infected cells were resuspended at 8×10^5 cells per mL and incubated with appropriate concentration of compounds of formulas I and II. Two days later, XTT/PMS was added to test plates and the amount of formazan produced was quantified spectrophotometrically at 450/650 nm. […] The therapeutic index (TI) was calculated by dividing the CC50 by the EC50.
All strains of human rhinovirus (HRV) for use in this assay were purchased from American Type Culture Collection (ATCC), except for HRV serotype-14, which was produced from the infectious cDNA clone, constructed and supplied to us by Dr. Roland Rueckert at the Institue for Molecular Virology, University of Wisconsin, Madison, Wisc. HRV stocks were propagated, and antiviral assays were perforemd in HI-HeLa cells (ATCC). Cells were grwon in Minimal Essential Medium, available from Life Technologies, with 10% fetal bovine serum. […]

CCOC(=O)c1ccc(OCCC2CCN(c3ccc(C)nn3)CC2)cc1 [Pirodavir, reference compound]
TI: >300
